Measurements published in PubChem BioAssay AID328 (DTP/NCI, 2004).
The list shows only some results of the screen, not a fair sample: it is rich in T/C values a quarter to a half above the control, in often repeated tests (any T/C) and in doses without a T/C. Further doses and runs are listed elsewhere. T/C is the treated group as % of the vehicle group. Some entries give survivors of the animals treated and no T/C: the source holds a T/C of zero for them, seemingly a mark for toxic or unscored doses. Some survivor counts are full or nearly so, which does not show that the dose was tolerated: survival well below the control is almost never listed, so the zero probably covers shortened survival too. Survivors were counted at the toxicity check, usually on the fifth day, unless a day is given; later deaths do not show. Schedule codes are those of the source, taken here to give the interval after Q, in days (D) or hours (H), and the number of doses after X. Some entries hold several experiments; their values stand side by side, smallest first. Where survival is the endpoint, the PubChem record calls one and a half times the control and up active, and a quarter to a half above the control has no call in these data; cut-offs in other NCI protocols can differ.

Test system: BDF1 mice, P388 leukemia ip, median survival T/C
Assay: NCI In Vivo Anticancer Drug Screen. Data for tumor model P388 Leukemia (intraperitoneal) in B6D2F1 (BDF1) mice
Settings: higher T/C = longer survival
Procedure, shortened: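 Each value expresses how treatment altered survival: treated-mouse outcome over vehicle-mouse outcome, both groups bearing the transplanted tumour.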

How did the T/C (T/C endpoint: median survival time, dose: 0.05 mg/kg/injection, schedule: Q01DX009 (ip), vehicle: saline + alcohol) turn out when `C=C(C)C12OC3(c4ccccc4)OC1C1C4OC4(CO)C(O)C4(O)C(=O)C(C)=CC4C1(O3)C(C)C2OC(=O)/C=C/C=C/c1ccccc1` (stereo not drawn) was run?
Its T/C is 147 % of control.

And the T/C (T/C endpoint: median survival time, dose: 0.1 mg/kg/injection, schedule: Q01DX009 (ip), vehicle: saline + alcohol)?
Its T/C is 148 % of control.

What about the survivor count (T/C endpoint: median survival time, dose: 0.2 mg/kg/injection, schedule: Q01DX009 (ip), vehicle: saline + alcohol) of the same compound?
The survivor count was 6 of 6.

What about the T/C (T/C endpoint: median survival time, dose: 0.25 mg/kg/injection, schedule: Q01DX009 (ip), vehicle: saline + alcohol) of the same compound?
The T/C was 141 % of control.

And the survivor count (T/C endpoint: median survival time, dose: 0.4 mg/kg/injection, schedule: Q01DX009 (ip), vehicle: saline + alcohol)?
The survivor count was 5 of 6.

What about the survivor count (T/C endpoint: median survival time, dose: 1.0 mg/kg/injection, schedule: Q01DX009 (ip), vehicle: saline + alcohol) of the same compound?
Its survivor count is 5 of 6.

And the survivor count (T/C endpoint: median survival time, dose: 2.0 mg/kg/injection, schedule: Q01DX009 (ip), vehicle: saline + alcohol)?
The survivor count was 3 of 6.

And the T/C (T/C endpoint: median survival time, dose: 12.5 micrograms/kg/injection, schedule: Q01DX009 (ip), vehicle: saline + alcohol)?
The T/C was 128 % of control.

And the T/C (T/C endpoint: median survival time, dose: 25.0 micrograms/kg/injection, schedule: Q01DX009 (ip), vehicle: saline + alcohol)?
Its T/C is 127 % of control.

And the survivor count (T/C endpoint: median survival time, dose: 50.0 micrograms/kg/injection, schedule: Q01DX009 (ip), vehicle: saline + alcohol)?
Its survivor count is 5 of 6.

What about the survivor count (T/C endpoint: median survival time, dose: 100.0 micrograms/kg/injection, schedule: Q01DX009 (ip), vehicle: gum acacia) of the same compound?
The survivor count was 6 of 6.

What about the survivor count (T/C endpoint: median survival time, dose: 100.0 micrograms/kg/injection, schedule: Q01DX009 (ip), vehicle: saline + alcohol) of the same compound?
Its survivor count is 5 of 6 and 6 of 6.

What about the survivor count (T/C endpoint: median survival time, dose: 200.0 micrograms/kg/injection, schedule: Q01DX009 (ip), vehicle: gum acacia) of the same compound?
Its survivor count is 2 of 6.

And the survivor count (T/C endpoint: median survival time, dose: 200.0 micrograms/kg/injection, schedule: Q01DX009 (ip), vehicle: saline + alcohol)?
Its survivor count is 1 of 6.

And the survivor count (T/C endpoint: median survival time, dose: 200.0 micrograms/kg/injection, schedule: Q01DX009 (ip), vehicle: saline with Tween-80)?
The survivor count was 0 of 6.

What about the survivor count (T/C endpoint: median survival time, dose: 400.0 micrograms/kg/injection, schedule: Q01DX009 (ip), vehicle: gum acacia) of the same compound?
The survivor count was 1 of 6.

And the survivor count (T/C endpoint: median survival time, dose: 400.0 micrograms/kg/injection, schedule: Q01DX009 (ip), vehicle: saline with Tween-80)?
The survivor count was 0 of 6.

And the survivor count (T/C endpoint: median survival time, dose: 800.0 micrograms/kg/injection, schedule: Q01DX009 (ip), vehicle: gum acacia)?
Its survivor count is 0 of 6.

And the survivor count (T/C endpoint: median survival time, dose: 800.0 micrograms/kg/injection, schedule: Q01DX009 (ip), vehicle: saline with Tween-80)?
Its survivor count is 0 of 6.

For `CC(=O)OCc1c(O)c2c(c(O)c1COC(C)=O)C(=O)C=CC2=O`, which survivor count (T/C endpoint: median survival time, dose: 50.0 mg/kg/injection, schedule: Q01DX009 (ip), vehicle: saline) is on record?
The survivor count was 5 of 6.

Which results are given for `CNC(C)(C)C(SSSC(c1ccc(Cl)cc1)C(C)(C)NC)c1ccc(Cl)cc1` (stereo not drawn)?
survivor count (T/C endpoint: mean survival time, dose: 50.0 mg/kg/injection, schedule: Q01DX009 (ip), vehicle: saline with Tween-80): 5 of 6; survivor count (T/C endpoint: median survival time, dose: 12.5 mg/kg/injection, schedule: Q01DX009 (ip), vehicle: saline with Tween-80): 3 of 6; survivor count (T/C endpoint: median survival time, dose: 100.0 mg/kg/injection, schedule: Q01DX009 (ip), vehicle: saline with Tween-80): 0 of 6; survivor count (T/C endpoint: median survival time, dose: 100.0 mg/kg/injection, schedule: Q04DX003 (ip), vehicle: saline with Tween-80): 6 of 6

With `CCCCC[C@@H](CN(C)C)[C@H](O)/C=C/c1ccc(Cl)cc1` as the compound, how does the T/C (T/C endpoint: median survival time, dose: 12.5 mg/kg/injection, schedule: Q01DX009 (ip), vehicle: Klucel (hydroxypropylcellulose) (HPC)) read?
Its T/C is 127 % of control.

What about the T/C (T/C endpoint: median survival time, dose: 25.0 mg/kg/injection, schedule: Q01DX009 (ip), vehicle: Klucel (hydroxypropylcellulose) (HPC)) of the same compound?
Its T/C is 127 % of control.

With `C1=C(c2ccccc2)CS1` as the compound, how does the survivor count (T/C endpoint: median survival time, dose: 100.0 mg/kg/injection, schedule: Q01DX001 (ip), vehicle: saline with Tween-80) read?
The survivor count was 2 of 6.

How did the survivor count (T/C endpoint: median survival time, dose: 200.0 mg/kg/injection, schedule: Q01DX009 (ip), vehicle: saline with Tween-80) turn out when `COc1cccc(/C=C2\SC(=S)N(CCCN3CCOCC3)C2=O)c1OC` was run?
The survivor count was 6 of 6.
